Paper PMC8918193
These are yes or no findings as the source states them, for the method shown. Binding seen in cells or lysates may run through a third protein. Binding can be weak; no strength is given. One block for each molecule: values may come before it.

What was measured:
[1] = molecular target: T1, casein kinase 1α (CK1α) (rat (endogenous in NRK-49F)) (UniProt P97633); assay: co-IP; NRK-49F cells lysed in NP40 buffer (50 mM Tris, 150 mM NaCl, 1 mM EDTA, 0.5% NP-40, 1 mM PMSF); about 500 µg cell protein with antibody against HRD1, GSK3β or CK1α overnight at 4 °C, protein A/G agarose beads 6 h, three washes, immunoblot; IgG as control
T1 sequence: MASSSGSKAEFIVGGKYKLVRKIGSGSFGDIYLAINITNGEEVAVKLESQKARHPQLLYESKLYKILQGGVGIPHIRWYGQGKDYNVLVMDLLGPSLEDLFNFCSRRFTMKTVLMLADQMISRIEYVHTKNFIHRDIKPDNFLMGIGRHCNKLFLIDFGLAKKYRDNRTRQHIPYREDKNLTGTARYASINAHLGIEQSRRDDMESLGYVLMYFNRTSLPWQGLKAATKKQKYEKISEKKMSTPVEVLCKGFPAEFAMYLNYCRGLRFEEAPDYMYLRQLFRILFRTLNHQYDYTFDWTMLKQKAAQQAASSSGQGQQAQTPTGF

[2] = molecular target: HMG-CoA reductase degradation protein 1 (HRD1) (rat (endogenous in NRK-49F)); assay: as above

binding [1]: binds
Molecule: HMG-CoA reductase degradation protein 1 (HRD1) (rat (endogenous in NRK-49F))

binding [2]: binds
B1: casein kinase 1α (CK1α) (protein, UniProt P97633 1-325)
chain: T1 sequence
